From article PMC6996382

Protein sequences, listed by entry. Tags and fused reporters are not part of them.
UniProt P46940: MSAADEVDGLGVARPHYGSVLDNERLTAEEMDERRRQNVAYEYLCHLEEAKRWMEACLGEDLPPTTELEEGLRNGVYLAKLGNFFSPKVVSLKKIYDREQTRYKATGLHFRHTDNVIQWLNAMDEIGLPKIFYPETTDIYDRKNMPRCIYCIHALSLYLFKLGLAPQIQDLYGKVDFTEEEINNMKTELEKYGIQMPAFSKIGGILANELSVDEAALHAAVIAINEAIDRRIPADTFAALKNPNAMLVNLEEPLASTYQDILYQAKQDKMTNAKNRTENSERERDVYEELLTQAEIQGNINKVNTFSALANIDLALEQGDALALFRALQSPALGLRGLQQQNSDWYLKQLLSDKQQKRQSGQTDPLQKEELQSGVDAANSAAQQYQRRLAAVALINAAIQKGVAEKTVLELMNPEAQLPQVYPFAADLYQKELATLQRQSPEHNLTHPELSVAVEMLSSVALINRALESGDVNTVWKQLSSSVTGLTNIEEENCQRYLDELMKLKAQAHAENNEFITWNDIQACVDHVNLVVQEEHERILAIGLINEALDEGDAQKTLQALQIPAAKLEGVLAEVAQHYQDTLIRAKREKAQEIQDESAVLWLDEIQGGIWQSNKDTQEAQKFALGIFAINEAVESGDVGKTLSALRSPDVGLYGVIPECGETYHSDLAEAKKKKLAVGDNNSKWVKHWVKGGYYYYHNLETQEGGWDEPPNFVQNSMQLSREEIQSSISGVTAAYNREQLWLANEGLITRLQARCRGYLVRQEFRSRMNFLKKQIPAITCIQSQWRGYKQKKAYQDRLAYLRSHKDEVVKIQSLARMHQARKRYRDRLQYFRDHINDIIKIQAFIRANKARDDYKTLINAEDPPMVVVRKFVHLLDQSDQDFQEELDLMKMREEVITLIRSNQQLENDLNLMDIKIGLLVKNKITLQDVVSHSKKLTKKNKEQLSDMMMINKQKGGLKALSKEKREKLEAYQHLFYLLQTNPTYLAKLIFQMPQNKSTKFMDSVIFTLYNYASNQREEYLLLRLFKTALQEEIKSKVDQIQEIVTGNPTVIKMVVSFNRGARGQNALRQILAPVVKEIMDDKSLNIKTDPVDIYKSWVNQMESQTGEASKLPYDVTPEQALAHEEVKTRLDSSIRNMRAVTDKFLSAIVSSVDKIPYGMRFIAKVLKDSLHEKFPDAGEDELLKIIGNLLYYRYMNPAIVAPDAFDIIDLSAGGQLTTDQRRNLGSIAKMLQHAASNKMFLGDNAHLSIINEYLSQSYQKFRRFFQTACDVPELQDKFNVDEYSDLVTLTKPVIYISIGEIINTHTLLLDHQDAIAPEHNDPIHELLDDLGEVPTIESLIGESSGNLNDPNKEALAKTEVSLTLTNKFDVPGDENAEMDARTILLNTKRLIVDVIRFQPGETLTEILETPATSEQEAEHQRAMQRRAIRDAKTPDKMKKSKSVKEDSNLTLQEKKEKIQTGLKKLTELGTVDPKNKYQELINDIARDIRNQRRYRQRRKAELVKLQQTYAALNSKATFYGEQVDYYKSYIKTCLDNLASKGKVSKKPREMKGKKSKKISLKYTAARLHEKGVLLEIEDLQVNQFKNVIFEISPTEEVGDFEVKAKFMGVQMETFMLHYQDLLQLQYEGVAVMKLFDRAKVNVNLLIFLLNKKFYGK

Biological target: T1, p122RhoGTPase‐activating protein (GAP)/deleted in liver cancer‐1 (p122RhoGAP/DLC‐1) (human (endogenous in skin fibroblasts)) (UniProt Q96QB1)
T1 sequence: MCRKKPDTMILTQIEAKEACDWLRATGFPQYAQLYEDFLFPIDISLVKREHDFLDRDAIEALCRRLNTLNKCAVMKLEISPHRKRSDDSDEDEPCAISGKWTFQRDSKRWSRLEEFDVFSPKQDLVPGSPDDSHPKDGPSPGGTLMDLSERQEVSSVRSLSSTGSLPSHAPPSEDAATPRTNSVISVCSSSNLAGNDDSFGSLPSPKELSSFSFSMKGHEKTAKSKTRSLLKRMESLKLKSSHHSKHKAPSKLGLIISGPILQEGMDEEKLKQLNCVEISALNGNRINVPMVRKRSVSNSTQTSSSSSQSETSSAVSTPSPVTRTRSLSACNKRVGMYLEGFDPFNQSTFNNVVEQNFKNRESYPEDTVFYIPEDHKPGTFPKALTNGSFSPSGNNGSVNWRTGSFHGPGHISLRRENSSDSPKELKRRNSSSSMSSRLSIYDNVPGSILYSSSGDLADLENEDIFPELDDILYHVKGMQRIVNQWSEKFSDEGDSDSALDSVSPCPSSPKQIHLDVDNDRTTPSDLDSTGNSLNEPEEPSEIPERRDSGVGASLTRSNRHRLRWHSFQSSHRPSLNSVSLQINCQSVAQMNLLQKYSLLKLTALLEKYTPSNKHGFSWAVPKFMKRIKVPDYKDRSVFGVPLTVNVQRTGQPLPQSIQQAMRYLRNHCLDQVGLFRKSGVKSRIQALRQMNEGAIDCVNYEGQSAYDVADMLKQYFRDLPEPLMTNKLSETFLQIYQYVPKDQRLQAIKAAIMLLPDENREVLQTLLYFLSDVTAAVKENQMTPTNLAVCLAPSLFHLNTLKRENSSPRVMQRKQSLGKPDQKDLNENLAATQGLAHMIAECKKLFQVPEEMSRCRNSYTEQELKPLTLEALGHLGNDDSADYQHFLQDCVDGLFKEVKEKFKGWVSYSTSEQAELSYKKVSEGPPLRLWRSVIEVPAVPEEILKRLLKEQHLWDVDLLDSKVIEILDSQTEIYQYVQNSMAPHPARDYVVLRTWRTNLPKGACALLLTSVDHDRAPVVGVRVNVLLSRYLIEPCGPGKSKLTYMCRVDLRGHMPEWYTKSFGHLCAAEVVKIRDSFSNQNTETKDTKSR
Experiment: affinity purification with mass spectrometry; immunoprecipitation with an anti‐p122RhoGAP/DLC‐1 mouse monoclonal antibody on Dynabeads G from CSA skin fibroblast lysate; 7.5% SDS‐PAGE, silver staining; bands of 150‐250 kDa analysed by TOF‐MS

binding: binds
Substance: IQ motif‐containing GTPase‐activating protein 1 (IQGAP1) (from UniProt P46940 1-1657)

Results are given in words; binding and its absence hold for the method and conditions named. In cells and extracts the contact can be indirect. These calls come from enrichment with a bait or labelling near it, and not all partners need be listed.
